PubChem BioAssay AID1159578, Peter MacCallum Cancer Centre – 2015

- Purpose: 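siRNA pools altering how lymphatic endothelial cells close a scratch wound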 (primary screen)
- Cell system: human lymphatic endothelial cells
- Reagent: siRNA pool against human genes, 40 nM
- Duration: 48 h after transfection
- Detection: 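High-content imaging of dye-stained cells in a scratch assay measures filled wound area and nuclei per well; duplicate means given as ratio to mock and robust z-score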
- Direction: migration robust z-score: higher = faster migration into the scratch; migration relative to mock: higher = more scratch area covered than mock; nuclei per well: higher = more cells in the well
- Hit rule: 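Pools averaging fewer than 3300 nuclei are never called; remaining pools count as changed when migration robust z lies outside -2 to 2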
- Meaning of the calls: active = migration changed; inactive = no migration change, or too few cells
In all, the deposit lists about 18,000 reagents; shown is an unselected part. About 1,030 of all reagents (5.7%) count as active. 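Inactive calls also include pools with fewer than 3300 nuclei, whose migration was not assessed.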 The raw values are shown without normalisation. No sequences are given here.

The opening 6 records, to show the layout:
| Target gene | migration robust z-score | migration class with cell-count check | migration relative to mock | nuclei per well, duplicate mean | outcome |
| --- | --- | --- | --- | --- | --- |
| PI4KA (phosphatidylinositol 4-kinase alpha) | -3.79 | migration z below -2; enough cells | 0.08 | 4779 | active |
| PNMA3 (PNMA family member 3) | 0.79 | migration z between -2 and 2; enough cells | 1.09 | 5202 | inactive |
| ACADSB (acyl-CoA dehydrogenase short/branched chain) | -2.91 | under 3300 nuclei; migration not judged | 0.24 | 2710 | inactive |
| DEFB118 (defensin beta 118) | -0.25 | migration z between -2 and 2; enough cells | 0.82 | 5954 | inactive |
| DOT1L (DOT1 like histone lysine methyltransferase) | -3.37 | migration z below -2; enough cells | 0.16 | 4440 | active |
| TRPC6 | -0.29 | migration z between -2 and 2; enough cells | 0.75 | 5321 | inactive |

Results, repeating the preview:
| Target gene | migration robust z-score | migration class with cell-count check | migration relative to mock | nuclei per well, duplicate mean | outcome |
| --- | --- | --- | --- | --- | --- |
| PI4KA (phosphatidylinositol 4-kinase alpha) | -3.79 | migration z below -2; enough cells | 0.08 | 4779 | active |
| PNMA3 (PNMA family member 3) | 0.79 | migration z between -2 and 2; enough cells | 1.09 | 5202 | inactive |
| ACADSB (acyl-CoA dehydrogenase short/branched chain) | -2.91 | under 3300 nuclei; migration not judged | 0.24 | 2710 | inactive |
| DEFB118 (defensin beta 118) | -0.25 | migration z between -2 and 2; enough cells | 0.82 | 5954 | inactive |
| DOT1L (DOT1 like histone lysine methyltransferase) | -3.37 | migration z below -2; enough cells | 0.16 | 4440 | active |
| TRPC6 | -0.29 | migration z between -2 and 2; enough cells | 0.75 | 5321 | inactive |
| HCG9 (HLA complex group 9) | 0.26 | migration z between -2 and 2; enough cells | 0.96 | 6513 | inactive |
| NUF2 (NUF2 component of NDC80 kinetochore complex) | -2.34 | migration z below -2; enough cells | 0.29 | 5180 | active |
| MEGF10 (multiple EGF like domains 10) | -0.88 | migration z between -2 and 2; enough cells | 0.66 | 5900 | inactive |
| ZNF207 (zinc finger protein 207) | -1.17 | migration z between -2 and 2; enough cells | 0.58 | 6494 | inactive |
| USP19 (ubiquitin specific peptidase 19) | -0.17 | migration z between -2 and 2; enough cells | 0.84 | 7629 | inactive |
| GABRA1 (gamma-aminobutyric acid type A receptor subunit alpha1) | 1.53 | migration z between -2 and 2; enough cells | 1.1 | 5896 | inactive |
| PLEKHF1 (pleckstrin homology and FYVE domain containing 1) | 0.7 | migration z between -2 and 2; enough cells | 1.06 | 6158 | inactive |
| SCO1 (synthesis of cytochrome C oxidase 1) | -0.62 | migration z between -2 and 2; enough cells | 0.72 | 4934 | inactive |
| DGAT1 (diacylglycerol O-acyltransferase 1) | 0.86 | migration z between -2 and 2; enough cells | 0.97 | 5895 | inactive |
| RP1 (RP1 axonemal microtubule associated) | 0.38 | migration z between -2 and 2; enough cells | 0.99 | 3342 | inactive |
| ZNF114 (zinc finger protein 114) | -1.95 | migration z between -2 and 2; enough cells | 0.37 | 4702 | inactive |
| LINC00482 (long independently transcribed non-coding RNA 482) | 0.86 | migration z between -2 and 2; enough cells | 1.11 | 6220 | inactive |
| STX19 (syntaxin 19) | 0.01 | migration z between -2 and 2; enough cells | 0.88 | 5594 | inactive |
| DESI1 (desumoylating isopeptidase 1) | -1.77 | migration z between -2 and 2; enough cells | 0.42 | 5800 | inactive |
| CDC6 (cell division cycle 6) | -0.94 | migration z between -2 and 2; enough cells | 0.64 | 6308 | inactive |
| APCDD1L (APC down-regulated 1 like) | -1.13 | migration z between -2 and 2; enough cells | 0.59 | 6272 | inactive |
| TRPM1 | 1.58 | migration z between -2 and 2; enough cells | 1.11 | 6038 | inactive |
| SMARCD2 (SWI/SNF related BAF chromatin remodeling complex subunit D2) | 0.86 | migration z between -2 and 2; enough cells | 0.97 | 5058 | inactive |
| ASB15 (ankyrin repeat and SOCS box containing 15) | 0.99 | migration z between -2 and 2; enough cells | 1 | 4776 | inactive |
| H3C12 (H3 clustered histone 12) | 1.1 | migration z between -2 and 2; enough cells | 1.17 | 5240 | inactive |
| KIF16B (kinesin family member 16B) | 0.18 | migration z between -2 and 2; enough cells | 0.84 | 5640 | inactive |
| SNX31 (sorting nexin 31) | 0.46 | migration z between -2 and 2; enough cells | 1 | 5418 | inactive |
| LGALS4 (galectin 4) | -1.5 | migration z between -2 and 2; enough cells | 0.52 | 5769 | inactive |
| SHC2 (SHC adaptor protein 2) | -0.53 | migration z between -2 and 2; enough cells | 0.75 | 5076 | inactive |
| OR11H1 (olfactory receptor family 11 subfamily H member 1) | -0.49 | migration z between -2 and 2; enough cells | 0.76 | 5130 | inactive |
| ARHGEF16 (Rho guanine nucleotide exchange factor 16) | 0 | migration z between -2 and 2; enough cells | 0.88 | 6076 | inactive |
| BTRC | 0.23 | migration z between -2 and 2; enough cells | 0.85 | 5235 | inactive |
| NEDD4 (NEDD4 E3 ubiquitin protein ligase) | 1.19 | migration z between -2 and 2; enough cells | 1.03 | 5343 | inactive |
| PDLIM4 (PDZ and LIM domain 4) | 0.72 | migration z between -2 and 2; enough cells | 1.07 | 6965 | inactive |
| ALG5 (ALG5 dolichyl-phosphate beta-glucosyltransferase) | -0.6 | migration z between -2 and 2; enough cells | 0.69 | 5614 | inactive |
| UGT2B17 (UDP glucuronosyltransferase family 2 member B17) | 0.32 | migration z between -2 and 2; enough cells | 0.86 | 5071 | inactive |
| COL1A2 (collagen type I alpha 2 chain) | 0.86 | migration z between -2 and 2; enough cells | 0.97 | 5053 | inactive |
| MRPS12 (mitochondrial ribosomal protein S12) | -0.29 | migration z between -2 and 2; enough cells | 0.81 | 3489 | inactive |
| DROSHA (drosha ribonuclease III) | -0.31 | migration z between -2 and 2; enough cells | 0.74 | 5679 | inactive |
| TIMD4 (T cell immunoglobulin and mucin domain containing 4) | 0.38 | migration z between -2 and 2; enough cells | 0.98 | 5300 | inactive |
| PTPDC1 (protein tyrosine phosphatase domain containing 1) | -0.52 | migration z between -2 and 2; enough cells | 0.7 | 5754 | inactive |
| TAS2R41 (taste 2 receptor member 41) | -0.98 | migration z between -2 and 2; enough cells | 0.63 | 3884 | inactive |
| SUMF2 (sulfatase modifying factor 2) | 1.6 | migration z between -2 and 2; enough cells | 1.3 | 5863 | inactive |
| CD160 (CD160 molecule) | -2.21 | migration z below -2; enough cells | 0.38 | 4048 | active |
| RAB11FIP2 (RAB11 family interacting protein 2) | -0.21 | migration z between -2 and 2; enough cells | 0.83 | 6334 | inactive |
| TAPT1 (transmembrane anterior posterior transformation 1) | 0.67 | migration z between -2 and 2; enough cells | 1.07 | 4051 | inactive |
| IRX4 (iroquois homeobox 4) | 0.83 | migration z between -2 and 2; enough cells | 0.96 | 7492 | inactive |
| CGB8 (chorionic gonadotropin subunit beta 8) | -0.11 | migration z between -2 and 2; enough cells | 0.86 | 5752 | inactive |
| TRAPPC6B (trafficking protein particle complex subunit 6B) | 1.32 | migration z between -2 and 2; enough cells | 1.23 | 6476 | inactive |
| CAPN6 (calpain 6) | 0.38 | migration z between -2 and 2; enough cells | 0.88 | 5174 | inactive |
| STAG2 (STAG2 cohesin complex component) | 1.75 | migration z between -2 and 2; enough cells | 1.34 | 5868 | inactive |
| PLCD3 (phospholipase C delta 3) | 0.32 | migration z between -2 and 2; enough cells | 0.86 | 6034 | inactive |
| GOLM1 (golgi membrane protein 1) | 1.58 | migration z between -2 and 2; enough cells | 1.29 | 6592 | inactive |
| ANKH (ANKH inorganic pyrophosphate transport regulator) | -0.34 | migration z between -2 and 2; enough cells | 0.74 | 6099 | inactive |
| UBTF (upstream binding transcription factor) | 0.18 | migration z between -2 and 2; enough cells | 0.84 | 6668 | inactive |
| GIMAP2 (GTPase, IMAP family member 2) | 1.21 | migration z between -2 and 2; enough cells | 1.2 | 5713 | inactive |
